# Results: the supplement of paper PMC12889115
# Some of the results follow. These are raw signals, not scaled to a control.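 In the initial screen, polymyxin B was used at a concentration that permeabilizes Salmonella's outer membrane but not its inner membrane. Maximum growth was set by DMSO wells with or without polymyxin B. Since plates varied, data were ranked per plate, and compounds giving the lowest OD600 advanced as hits.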
# Tested on: Salmonella enterica serovar Typhimurium SL1344
# Test: bacterial growth OD600 after 18 h with compound and polymyxin B; higher = more bacterial growth (less inhibition)
# Conditions: 50 µM, Mueller-Hinton broth
structure (smiles),measurement,setting,value
O=C(C1CC(Cc2ccc(F)cc2)=NO1)N1CCC(c2ccccc2F)C1 (centres undefined),bacterial growth OD600,polymyxin B 0.75 µg/mL,0.829
O=C(c1ccc(NCC2CC2)nc1)N1CCCCC1CCn1cccn1 (centres undefined),bacterial growth OD600,polymyxin B 1 µg/mL,0.925
CO[C@H]1[C@H](NC(=O)CSC)c2ccccc2C12CCN(Cc1ccc(OCCO)cc1)CC2,bacterial growth OD600,polymyxin B 0.75 µg/mL,0.909
CC(C)C[C@H](NC(=O)c1csc2nc(-c3cccc(C(F)(F)F)c3)cn12)C(N)=O,bacterial growth OD600,polymyxin B 1 µg/mL,-0.001
O=C(NC1CC(=O)N(Cc2cccc(F)c2)C1)c1cccs1 (centres undefined),bacterial growth OD600,polymyxin B 1 µg/mL,1.11
COCCN1C(=O)CC(CC(=O)N2CCN(c3ccc(Cl)cn3)CC2)(c2ccccc2F)C1=O (centres undefined),bacterial growth OD600,polymyxin B 0.75 µg/mL,0.688
Cc1nc(N2CCCCCCC2)ncc1C(C)NS(=O)(=O)N(C)C (centres undefined),bacterial growth OD600,polymyxin B 1 µg/mL,0.925
O=C(Nc1ccc(Oc2cccnc2)cc1)C1CCCCN1Cc1ccccc1F (centres undefined),bacterial growth OD600,polymyxin B 1 µg/mL,0.012
Cc1oc(-c2cccc(NC(=O)C3CCOCC3)c2)nc1CNC(=O)CCc1ccccc1,bacterial growth OD600,polymyxin B 0.75 µg/mL,0.827

# For convenience, some entries already given.
structure (smiles),measurement,setting,value
O=C(Nc1ccc(Oc2cccnc2)cc1)C1CCCCN1Cc1ccccc1F (centres undefined),bacterial growth OD600,polymyxin B 1 µg/mL,0.012
Cc1oc(-c2cccc(NC(=O)C3CCOCC3)c2)nc1CNC(=O)CCc1ccccc1,bacterial growth OD600,polymyxin B 0.75 µg/mL,0.827
